At least one structure is not confirmed: it was looked up by name or label, or the drawing left a doubt.
Test system: IDO
Assay: IDO enzymatic activity, kynurenine by colorimetric assay (Ehrlich's reagent), in monocyte-derived DCs
Assay type: cell-based, human
Conditions: iDCs treated in combination with TNFα, 48 hrs
Description: Determination of IDO enzymatic activity and Kynurenine assays. Tryptophan is catabolized by IDO to N-formylkynrenine, which is rapidly converted to kynurenine. Measurement of kynurenine levels is a surrogate marker for IDO activity.
Except where stated, cells were incubated for an additional 4 hours, followed by harvest of supernatant and quantitation of kynurenine by HPLC or using a colormetric assay.
Alternatively, kynurenine concentrations in the culture supernatants were measured using a colormetric assay (i.e., spectrophotometrically). 50 μl of 30% trichloroacetic acid was added to 100 μl of the culture supernatant, vortexed, and then centrifuged at 10,000 rpm for 5 minutes. A 75 μl volume of the supernatant was added to 75 μl of Ehrlich's reagent (100 mg of […], 5 ml of glacial acetic acid) in a microtiter plate well (96-well format). Optical density was measured at 480 nm filter with a Multiskan MS (Labsystems) microplate reader. The values were referred to a standard curve of defined kynurenine concentrations ([…]).
To validate this approach, the present inventors established a standard curve for quantifying kynurenine and compared the experimental values obtained using the calorimetric assay with those from the HPLC analysis.

C=C[C@@]1(C)CC(=O)[C@]2(O)[C@@]3(C)[C@@H](O)CCC(C)(C)[C@@H]3[C@H](O)[C@H](OC(C)=O)[C@@]2(C)O1 [forskolin, Forskolin]
IDO activity in the presence of TNFα (PGE2 replaced): equivalent to that in TNFα and PGE2 matured DCs

Source: US20060110371A1, “Control of indoleamine 2,3 deoxygenase expression and activity” (INSTITUT PASTEUR, priority 2004, published 2006)
